Data taken from US20240294622A1.
Results are given in words; binding and its absence hold for the method and conditions named. Some entries that bind do so weakly or less than the wild type. Where a sequence is shown, tags or fusion partners need not be part of it.

Sequences of proteins named here, by UniProt entry; tags and fusion partners are left off. Residues count along the entry.
UniProt P11362, residues 22-376: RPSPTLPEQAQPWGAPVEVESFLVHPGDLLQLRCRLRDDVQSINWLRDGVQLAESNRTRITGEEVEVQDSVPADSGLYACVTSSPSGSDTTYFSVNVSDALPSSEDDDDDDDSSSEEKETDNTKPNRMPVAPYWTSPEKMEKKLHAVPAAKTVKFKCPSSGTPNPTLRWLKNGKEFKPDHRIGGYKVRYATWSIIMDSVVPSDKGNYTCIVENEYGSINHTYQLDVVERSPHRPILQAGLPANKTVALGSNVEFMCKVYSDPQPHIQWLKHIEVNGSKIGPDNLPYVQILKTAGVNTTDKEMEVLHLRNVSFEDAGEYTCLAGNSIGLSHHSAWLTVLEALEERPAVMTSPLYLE

Assays:
[1] = biological target: recombinant human FGFR1-Fc (Sino-Biological) (human) (UniProt P11362); assay: ELISA, coated FGFR1-Fc 2 ug/ml, gremlin-his (ACRO) titrated from 2 ug/ml
[2] = biological target: recombinant human FGFR1-Fc (Sino-Biological) (human) (UniProt P11362); assay: ELISA: coated FGFR1-Fc 2 µg/ml, gremlin-his titrated, anti-his HRP
[3] = biological target: T1, human BMP7 (R&D) (human), P18075; assay: ELISA: coated BMP7, gremlin titrated (sheet title: BMP2/4/7 binding to human gremlin-his); conditions: remark: other sources report otherwise
T1 chain: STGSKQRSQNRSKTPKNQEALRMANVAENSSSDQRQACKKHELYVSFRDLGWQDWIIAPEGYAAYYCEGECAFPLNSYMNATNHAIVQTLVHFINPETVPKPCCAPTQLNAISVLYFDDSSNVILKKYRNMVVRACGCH

[4] = biological target: T1, human BMP7 (R&D) (human), P18075; assay: ELISA, coated BMP7 0.5 ug/ml; conditions: remark: other sources report otherwise

B1: HGREM1-His (ACRO) (ligand, not shown: small tags and cut ends)
chain: KKKGSQGAIPPPDKAQHNDSEQTQSPQQPGSRNRGRGQGRGTAMPGEEVLESSQEALHVTERKYLKRDWCKTQPLKQTIHEEGCNSRTIINRFCYGQCNSFYIPRHIRKEEGSFQSCSFCKPKKFTTMMVTLNCPELQPPTKKKRVTRVKQCRCISIDLD
binding [1]: binds | binding [2]: binds

B2: HGREM1-His (ACRO), O60565 25-184 (ligand, not shown: small tags and cut ends)
chain: B1 chain
binding [3]: binds

B3: Gremlin-Fc, O60565 25-184 (Fc fusion, not shown: a dimerising Fc or GST)
chain: B1 chain
binding [4]: binds
